The record followed here is the supplement of paper PMC10849652.

Amino acid sequences for entries named in this document (tags omitted). A change or cut given only in a name is not applied to a line headed by its entry.
UniProt Q9H0C5: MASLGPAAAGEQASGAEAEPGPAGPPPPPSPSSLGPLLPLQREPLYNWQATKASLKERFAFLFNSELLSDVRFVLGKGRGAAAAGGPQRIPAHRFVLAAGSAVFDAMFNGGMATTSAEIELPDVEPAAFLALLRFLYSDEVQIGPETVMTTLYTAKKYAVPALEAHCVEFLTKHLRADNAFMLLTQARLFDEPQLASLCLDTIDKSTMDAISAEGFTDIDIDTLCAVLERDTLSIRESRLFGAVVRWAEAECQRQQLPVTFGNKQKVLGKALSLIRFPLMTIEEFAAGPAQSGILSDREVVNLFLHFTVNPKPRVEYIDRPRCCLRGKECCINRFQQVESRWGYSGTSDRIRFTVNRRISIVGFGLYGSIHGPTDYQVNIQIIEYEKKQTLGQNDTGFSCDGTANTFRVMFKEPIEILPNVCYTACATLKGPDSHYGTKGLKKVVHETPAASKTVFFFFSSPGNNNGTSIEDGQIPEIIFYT
UniProt O60513: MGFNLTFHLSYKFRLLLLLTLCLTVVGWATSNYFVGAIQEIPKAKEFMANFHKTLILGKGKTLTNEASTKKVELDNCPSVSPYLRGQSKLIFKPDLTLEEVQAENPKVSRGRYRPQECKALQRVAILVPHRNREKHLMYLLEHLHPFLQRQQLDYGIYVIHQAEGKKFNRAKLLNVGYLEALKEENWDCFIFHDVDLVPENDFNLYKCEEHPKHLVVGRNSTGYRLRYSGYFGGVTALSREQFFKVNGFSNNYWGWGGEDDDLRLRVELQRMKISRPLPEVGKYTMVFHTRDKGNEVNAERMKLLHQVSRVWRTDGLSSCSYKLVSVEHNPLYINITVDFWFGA
UniProt O15392, whole entry, looked up: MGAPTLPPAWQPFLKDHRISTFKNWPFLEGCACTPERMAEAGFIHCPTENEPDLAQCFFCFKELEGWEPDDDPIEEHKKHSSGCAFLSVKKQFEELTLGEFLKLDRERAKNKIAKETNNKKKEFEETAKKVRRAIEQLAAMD
UniProt O00499: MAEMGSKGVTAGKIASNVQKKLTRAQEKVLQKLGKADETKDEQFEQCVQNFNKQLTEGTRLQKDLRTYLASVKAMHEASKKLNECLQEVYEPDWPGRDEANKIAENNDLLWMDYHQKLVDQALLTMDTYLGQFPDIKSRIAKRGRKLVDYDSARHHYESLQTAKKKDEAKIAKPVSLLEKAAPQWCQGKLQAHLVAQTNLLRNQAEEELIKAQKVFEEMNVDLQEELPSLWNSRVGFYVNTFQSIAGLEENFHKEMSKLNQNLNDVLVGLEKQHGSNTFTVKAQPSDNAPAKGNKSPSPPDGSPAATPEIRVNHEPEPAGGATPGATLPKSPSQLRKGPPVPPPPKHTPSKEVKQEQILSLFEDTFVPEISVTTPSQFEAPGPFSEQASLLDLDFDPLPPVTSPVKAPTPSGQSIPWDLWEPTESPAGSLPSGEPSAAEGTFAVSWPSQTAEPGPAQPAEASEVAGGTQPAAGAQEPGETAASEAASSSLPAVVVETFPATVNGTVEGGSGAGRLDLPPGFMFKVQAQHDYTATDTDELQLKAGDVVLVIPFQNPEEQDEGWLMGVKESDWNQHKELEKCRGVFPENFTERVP
UniProt Q8TDL5: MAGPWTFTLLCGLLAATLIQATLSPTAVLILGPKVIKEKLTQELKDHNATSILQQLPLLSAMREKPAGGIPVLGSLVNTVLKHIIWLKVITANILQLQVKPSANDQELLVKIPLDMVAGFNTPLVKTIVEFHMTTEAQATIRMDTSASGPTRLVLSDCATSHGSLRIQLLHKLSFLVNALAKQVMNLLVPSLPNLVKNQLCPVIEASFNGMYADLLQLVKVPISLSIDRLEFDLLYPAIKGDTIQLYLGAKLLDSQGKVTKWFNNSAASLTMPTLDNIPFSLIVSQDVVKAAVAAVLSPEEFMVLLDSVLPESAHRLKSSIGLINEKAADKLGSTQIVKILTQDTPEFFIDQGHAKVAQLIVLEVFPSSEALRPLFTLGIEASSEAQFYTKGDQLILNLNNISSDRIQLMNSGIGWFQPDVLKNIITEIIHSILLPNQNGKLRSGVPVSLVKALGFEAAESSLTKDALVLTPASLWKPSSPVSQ
UniProt Q96G97: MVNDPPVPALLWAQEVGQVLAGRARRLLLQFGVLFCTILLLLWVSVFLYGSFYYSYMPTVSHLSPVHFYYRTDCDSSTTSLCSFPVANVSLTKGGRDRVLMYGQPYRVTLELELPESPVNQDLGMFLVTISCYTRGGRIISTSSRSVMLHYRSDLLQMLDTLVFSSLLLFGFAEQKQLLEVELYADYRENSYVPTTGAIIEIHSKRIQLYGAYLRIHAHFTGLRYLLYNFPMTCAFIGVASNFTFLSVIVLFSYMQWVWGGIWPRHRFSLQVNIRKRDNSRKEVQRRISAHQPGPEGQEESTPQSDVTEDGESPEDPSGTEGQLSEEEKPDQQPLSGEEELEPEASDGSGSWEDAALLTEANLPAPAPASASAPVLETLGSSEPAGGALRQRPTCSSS
UniProt Q96DR5: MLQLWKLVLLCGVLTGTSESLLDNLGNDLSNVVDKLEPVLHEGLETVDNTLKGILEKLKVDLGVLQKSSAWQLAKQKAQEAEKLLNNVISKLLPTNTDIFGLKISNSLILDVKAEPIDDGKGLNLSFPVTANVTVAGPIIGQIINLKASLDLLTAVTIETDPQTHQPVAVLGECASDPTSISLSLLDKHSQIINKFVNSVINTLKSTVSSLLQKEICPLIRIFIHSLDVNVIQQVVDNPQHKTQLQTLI
UniProt O14503, whole entry, looked up: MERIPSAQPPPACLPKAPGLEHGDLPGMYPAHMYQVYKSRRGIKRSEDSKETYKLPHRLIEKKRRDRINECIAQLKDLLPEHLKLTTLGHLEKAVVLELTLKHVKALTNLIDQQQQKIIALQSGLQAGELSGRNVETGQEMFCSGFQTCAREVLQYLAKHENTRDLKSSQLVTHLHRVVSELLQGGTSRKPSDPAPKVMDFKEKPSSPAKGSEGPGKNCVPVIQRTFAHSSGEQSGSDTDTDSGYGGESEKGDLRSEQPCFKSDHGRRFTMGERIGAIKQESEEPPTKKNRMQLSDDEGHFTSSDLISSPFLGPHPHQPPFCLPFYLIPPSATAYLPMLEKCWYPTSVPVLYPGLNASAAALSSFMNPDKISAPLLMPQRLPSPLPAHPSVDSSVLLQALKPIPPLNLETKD
UniProt O60238, whole entry, looked up: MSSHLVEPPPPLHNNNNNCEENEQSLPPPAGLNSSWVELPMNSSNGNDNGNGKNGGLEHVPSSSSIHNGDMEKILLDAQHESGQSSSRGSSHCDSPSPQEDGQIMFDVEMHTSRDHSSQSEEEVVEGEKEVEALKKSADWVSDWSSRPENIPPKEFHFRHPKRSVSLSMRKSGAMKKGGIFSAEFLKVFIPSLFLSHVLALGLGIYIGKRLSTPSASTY
UniProt Q8N9N5: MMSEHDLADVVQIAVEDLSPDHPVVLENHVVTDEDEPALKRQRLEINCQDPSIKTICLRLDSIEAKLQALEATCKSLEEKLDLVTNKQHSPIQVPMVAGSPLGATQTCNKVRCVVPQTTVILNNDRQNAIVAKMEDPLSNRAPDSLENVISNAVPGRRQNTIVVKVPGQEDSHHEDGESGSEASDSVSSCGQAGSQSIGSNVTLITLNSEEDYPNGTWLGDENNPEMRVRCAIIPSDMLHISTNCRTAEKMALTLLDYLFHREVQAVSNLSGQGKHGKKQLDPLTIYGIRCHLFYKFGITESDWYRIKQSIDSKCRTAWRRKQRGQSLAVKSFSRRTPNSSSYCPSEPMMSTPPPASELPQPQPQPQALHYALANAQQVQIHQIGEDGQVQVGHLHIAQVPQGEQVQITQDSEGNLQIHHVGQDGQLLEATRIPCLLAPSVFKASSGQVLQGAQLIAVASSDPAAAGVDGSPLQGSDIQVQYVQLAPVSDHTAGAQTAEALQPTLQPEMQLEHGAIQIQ
UniProt O43505: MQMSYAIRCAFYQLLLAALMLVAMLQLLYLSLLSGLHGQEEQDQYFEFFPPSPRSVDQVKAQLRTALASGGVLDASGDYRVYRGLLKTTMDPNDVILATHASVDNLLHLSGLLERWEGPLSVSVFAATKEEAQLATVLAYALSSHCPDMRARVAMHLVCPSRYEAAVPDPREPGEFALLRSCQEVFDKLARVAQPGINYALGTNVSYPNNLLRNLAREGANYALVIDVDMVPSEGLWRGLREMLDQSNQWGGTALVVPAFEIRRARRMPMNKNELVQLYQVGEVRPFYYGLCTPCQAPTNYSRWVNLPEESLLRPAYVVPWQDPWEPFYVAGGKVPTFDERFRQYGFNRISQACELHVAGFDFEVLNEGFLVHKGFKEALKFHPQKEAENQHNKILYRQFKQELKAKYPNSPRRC
UniProt Q9BSF8: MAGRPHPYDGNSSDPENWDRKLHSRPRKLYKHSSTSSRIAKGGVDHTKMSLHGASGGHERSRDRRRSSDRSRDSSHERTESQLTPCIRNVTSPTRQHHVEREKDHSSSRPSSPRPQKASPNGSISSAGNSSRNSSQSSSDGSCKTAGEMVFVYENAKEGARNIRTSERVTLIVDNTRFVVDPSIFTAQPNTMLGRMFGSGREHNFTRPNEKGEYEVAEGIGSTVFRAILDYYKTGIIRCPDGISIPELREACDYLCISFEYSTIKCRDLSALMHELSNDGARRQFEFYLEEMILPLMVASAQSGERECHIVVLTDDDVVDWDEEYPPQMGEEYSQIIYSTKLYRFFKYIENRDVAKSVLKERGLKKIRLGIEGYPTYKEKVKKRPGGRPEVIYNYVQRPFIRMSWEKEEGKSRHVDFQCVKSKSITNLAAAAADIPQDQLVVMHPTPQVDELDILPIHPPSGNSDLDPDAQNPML
UniProt O75363: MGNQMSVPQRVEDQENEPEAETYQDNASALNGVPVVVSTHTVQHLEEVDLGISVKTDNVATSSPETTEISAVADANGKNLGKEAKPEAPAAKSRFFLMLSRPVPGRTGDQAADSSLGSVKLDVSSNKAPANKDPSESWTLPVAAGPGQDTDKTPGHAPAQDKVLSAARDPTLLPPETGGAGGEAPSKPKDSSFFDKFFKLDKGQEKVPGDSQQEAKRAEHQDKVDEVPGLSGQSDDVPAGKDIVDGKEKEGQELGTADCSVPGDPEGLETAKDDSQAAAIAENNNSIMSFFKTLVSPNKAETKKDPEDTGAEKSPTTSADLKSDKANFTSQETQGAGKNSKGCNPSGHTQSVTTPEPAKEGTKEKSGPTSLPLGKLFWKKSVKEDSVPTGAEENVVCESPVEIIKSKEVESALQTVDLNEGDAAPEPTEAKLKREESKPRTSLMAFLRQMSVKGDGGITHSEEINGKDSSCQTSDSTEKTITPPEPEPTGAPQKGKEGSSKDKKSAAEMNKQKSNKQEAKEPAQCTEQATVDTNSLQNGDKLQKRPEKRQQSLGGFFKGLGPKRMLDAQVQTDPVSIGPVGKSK
UniProt Q76KP1: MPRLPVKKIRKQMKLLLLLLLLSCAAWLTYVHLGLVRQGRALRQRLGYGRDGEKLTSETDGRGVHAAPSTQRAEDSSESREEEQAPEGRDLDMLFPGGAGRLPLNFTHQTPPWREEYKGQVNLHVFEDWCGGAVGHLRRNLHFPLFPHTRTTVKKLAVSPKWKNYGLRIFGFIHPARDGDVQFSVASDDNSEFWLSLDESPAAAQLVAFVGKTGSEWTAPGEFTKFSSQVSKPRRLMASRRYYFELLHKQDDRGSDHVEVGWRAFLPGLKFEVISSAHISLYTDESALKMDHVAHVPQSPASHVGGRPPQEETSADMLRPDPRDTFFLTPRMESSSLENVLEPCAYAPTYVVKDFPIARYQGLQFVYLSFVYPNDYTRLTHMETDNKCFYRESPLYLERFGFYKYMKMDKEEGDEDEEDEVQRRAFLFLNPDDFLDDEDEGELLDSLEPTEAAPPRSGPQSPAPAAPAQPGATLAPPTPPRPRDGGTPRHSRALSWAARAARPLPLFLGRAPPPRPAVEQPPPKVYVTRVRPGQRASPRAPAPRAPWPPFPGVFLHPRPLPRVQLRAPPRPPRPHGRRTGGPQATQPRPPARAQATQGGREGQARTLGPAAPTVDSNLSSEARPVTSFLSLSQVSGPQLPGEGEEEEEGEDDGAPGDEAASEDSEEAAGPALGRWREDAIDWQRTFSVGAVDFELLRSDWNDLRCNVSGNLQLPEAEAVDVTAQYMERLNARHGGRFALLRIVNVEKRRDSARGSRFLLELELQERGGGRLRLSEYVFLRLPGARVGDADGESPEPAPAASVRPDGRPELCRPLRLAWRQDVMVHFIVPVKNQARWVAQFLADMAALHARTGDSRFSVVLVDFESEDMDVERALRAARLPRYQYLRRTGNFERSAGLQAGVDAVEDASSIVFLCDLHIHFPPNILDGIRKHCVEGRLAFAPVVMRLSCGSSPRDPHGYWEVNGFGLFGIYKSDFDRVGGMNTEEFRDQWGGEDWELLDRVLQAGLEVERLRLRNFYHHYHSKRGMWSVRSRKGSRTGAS
UniProt Q12983, whole entry, looked up: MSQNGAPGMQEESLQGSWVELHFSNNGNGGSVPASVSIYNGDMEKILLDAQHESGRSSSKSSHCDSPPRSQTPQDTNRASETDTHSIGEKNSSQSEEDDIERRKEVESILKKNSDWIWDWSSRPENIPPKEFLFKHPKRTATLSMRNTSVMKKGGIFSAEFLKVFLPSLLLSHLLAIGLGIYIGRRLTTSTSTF

This is one part of the list.

Assay in all cases: log2 fold change, soluble protein after heating vs DMSO (PISA); higher = thermal stabilisation; K562 lysate, 10 uM; active = over 0.2 and 3.5 SD of the protein, either way, in both replicates (recomputed)
Compound in assay [1]: NCC(=O)Nc1ccc(-n2nc(C(F)(F)F)cc2-c2ccc3c(ccc4ccccc43)c2)cc1
An outline of the steps:
(§1)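 Values give the log-two fold change in thermal stability against solvent controls, from duplicates. Crude K562 extract at 1 mg/mL protein, made by dounce homogenisation in PBS pH 7.4 with 1 mM MgCl2, was treated with 10 μM compound for 30 min. After 3 min heating across 48°C-58°C, aliquots were pooled, adjusted to 0.5% NP-40 at 4°C and centrifuged at 21,000xg for 90 min. The supernatant was measured by TMTpro 16plex LC-MS/MS with channel sums equalised.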

Compound in another assay: O=C(CCCCCCC(=O)Nc1ccccc1)NO [vorinostat]
An outline of the steps: as §1

Compound in another assay: O=C(O)c1ccc2c(c1)nc(Nc1cccc(Cl)c1)c1ccncc12 [silmitasertib]
Put shortly:
as §1

Compound in a further assay: c1cn2cc(-c3ccc4cn[nH]c4c3)nc(Nc3ccc(N4CCOCC4)cc3)c2n1 [entospletinib]
An outline of the steps: as §1

Compound in assay [2]: O=C1NC(=O)C(c2cnc3ccccn23)=C1c1cn2c3c(cc(F)cc13)CN(C(=O)N1CCCCC1)CC2
Put shortly:
as §1

Take BTBD1 (UniProt Q9H0C5): the log2 fold change in assay [1] was inactive: -0.037; with vorinostat, inactive: -0.291; with silmitasertib, inactive: 0.131; in the assay with entospletinib it was inactive: -0.122.
B4GALT4 (UniProt O60513): the results for the log2 fold change in the assay with vorinostat and in the assay with silmitasertib were inactive: 0.255 and inactive: -0.004, respectively.
Regarding BABAM1 (UniProt Q9NWV8), the log2 fold change was inactive: -0.037 in assay [1]; inactive: -0.194 with vorinostat; inactive: -0.025 with silmitasertib; inactive: -0.024 in assay [2]; inactive: 0 with entospletinib.
The matching figures for BIRC5 (UniProt O15392): inactive: -0.096, inactive: -0.154, inactive: -0.012, inactive: 0 and inactive: 0.
Take BRAF, A0A2R8Y8E0: the log2 fold change was inactive: 0.017 in assay [1] and inactive: -0.082 with entospletinib.
BCAR1 isoform 6 (UniProt P56945): the log2 fold change in assay [1] was inactive: 0.056; with vorinostat, inactive: -0.032; with silmitasertib, inactive: 0.002; in assay [2], inactive: -0.004; with entospletinib, inactive: -0.083.
For the target BIN1 (UniProt O00499), the log2 fold change was inactive: 0 in assay [1], inactive: 0.441 in the assay with vorinostat, inactive: 0.121 with silmitasertib and inactive: 0.025 with entospletinib.
Turning to BAG6 (UniProt F6WML8), the log2 fold change in assay [1] is inactive: -0.01; in the assay with vorinostat, inactive: 0.183; in the assay with silmitasertib, inactive: 0.008; with entospletinib, inactive: -0.024.
Turning to BROX (UniProt Q5VW32), the log2 fold change is inactive: 0.017 in assay [1]; inactive: -0.024 with vorinostat; inactive: 0.011 with silmitasertib; inactive: -0.009 in assay [2]; inactive: 0.006 with entospletinib.
On to BPIFA1 (UniProt Q9NP55), for which the log2 fold change in assay [1] was inactive: 0.067; with vorinostat, inactive: 0.341; with silmitasertib it was inactive: -0.091; with entospletinib it was inactive: 0.099.
In the case of BPNT1 (UniProt A6NF51), the log2 fold change in assay [1] is inactive: 0.026; in the assay with vorinostat, inactive: 0; with silmitasertib, inactive: 0.094; with entospletinib, inactive: 0.135.
Take BPIFB1 (UniProt Q8TDL5): in the assay with entospletinib, the log2 fold change was inactive: -0.348.
Turning to BTG3 isoform 2 (UniProt Q14201), the log2 fold change is inactive: -0.731 with vorinostat, inactive: -0.149 in the assay with silmitasertib and inactive: 0.002 in the assay with entospletinib.
As for BNIP2 (UniProt H7C096), in the assay with entospletinib, the log2 fold change was inactive: -0.06.
As to BSCL2 isoform 4 (UniProt Q96G97), the log2 fold change is inactive: 0.01 with vorinostat, inactive: -0.12 with silmitasertib and inactive: 0.056 in assay [2].
As for BOD1 (UniProt Q96IK1), the log2 fold change in assay [2] was inactive: -0.018.
For BCL7C (UniProt Q8WUZ0), the log2 fold change was inactive: 0.061 in the assay with vorinostat, inactive: 0.081 with silmitasertib, inactive: 0.036 in assay [2] and inactive: -0.506 in the assay with entospletinib.
The matching figures for BBX (UniProt Q8WY36): inactive: -0.257, inactive: 0.241, inactive: 0.046 and inactive: 0.
BPIFA2 (UniProt Q96DR5): the log2 fold change in the assay with vorinostat is inactive: 0.129; with silmitasertib it was inactive: -0.067; in the assay with entospletinib, inactive: -0.234.
In the case of BHLHE40 (UniProt O14503), the log2 fold change was inactive: 0.043 with vorinostat, inactive: 0.052 with silmitasertib and inactive: 0.005 in assay [2].
For BDH2 (UniProt Q9BUT1), the log2 fold change in the assay with vorinostat is inactive: 0.061; in the assay with silmitasertib, inactive: -0.025; in assay [2], inactive: -0.013; in the assay with entospletinib, inactive: 0.057.
In the case of BRWD1 (UniProt Q9NSI6), the log2 fold change in assay [2] is inactive: 0.147.
BNIP3L (UniProt O60238): the log2 fold change in assay [2] was inactive: -0.041; with entospletinib, inactive: -0.094.
Turning to BCL7A (UniProt Q4VC05), in assay [2], the log2 fold change was inactive: 0.082.
Take BANP isoform 7 (UniProt Q8N9N5): the log2 fold change with vorinostat was inactive: -0.013; with silmitasertib, inactive: -0.072; with entospletinib it was inactive: -0.098.
In the case of B4GAT1 (UniProt O43505), the values for the log2 fold change (in the assay with vorinostat; with silmitasertib; in assay [2]) were inactive: -0.073, inactive: 0.086 and inactive: -0.035, respectively.
In the case of BAZ2A (UniProt Q9UIF9), the log2 fold change in the assay with vorinostat is inactive: -0.047; with silmitasertib it was inactive: 0.119; in assay [2], inactive: -0.03; with entospletinib, inactive: -0.099.
Take BRD9 (UniProt Q9H8M2): the log2 fold change is inactive: 0.026 in the assay with vorinostat, inactive: 0.01 in the assay with silmitasertib and inactive: -0.003 in the assay with entospletinib.
For the target BTBD10 isoform 2 (UniProt Q9BSF8), in assay [2], the log2 fold change was inactive: 0.002.
Take BCAS1 isoform 2 (UniProt O75363): the log2 fold change is inactive: 0.044 in assay [2] and inactive: -0.092 with entospletinib.
With BTG1 (UniProt P62324), the log2 fold change in assay [2] is inactive: 0.028.
Consider BICRA (UniProt Q9NZM4), for which the log2 fold change with vorinostat is inactive: 0.11; with silmitasertib it was inactive: -0.203; in assay [2], inactive: -0.076.
For the target BRD7 isoform 2 (UniProt Q9NPI1), the log2 fold change with vorinostat was inactive: 0.018; with silmitasertib, inactive: 0.034; in assay [2], inactive: 0.104.
Regarding B4GALNT4 (UniProt Q76KP1), in assay [2], the log2 fold change is inactive: -0.073.
Regarding BNIP3 (UniProt Q12983), the log2 fold change was inactive: 0.066 in the assay with vorinostat, inactive: -0.08 with silmitasertib, inactive: -0.048 in assay [2] and inactive: -0.031 in the assay with entospletinib.
As to BAIAP2 isoform 6 (UniProt Q9UQB8), the log2 fold change in assay [2] is inactive: -0.115.
For BICRAL (UniProt Q6AI39), the log2 fold change with entospletinib was inactive: 0.166.
As to BEX4 (UniProt Q9NWD9), the log2 fold change was inactive: 0.029 in the assay with vorinostat, inactive: 0.016 in the assay with silmitasertib and inactive: -0.106 in assay [2].
In the case of BTBD2 (UniProt Q9BX70), the log2 fold change with vorinostat is inactive: 0.003; with silmitasertib it was inactive: -0.199; in assay [2], inactive: -0.05; in the assay with entospletinib, inactive: -0.038.
Turning to BDP1 (UniProt A6H8Y1), the log2 fold change in assay [2] was inactive: -0.055; in the assay with entospletinib it was inactive: -0.133.
Regarding BRF2 (UniProt Q9HAW0), in the assay with entospletinib, the log2 fold change is inactive: -0.103.
With BAHD1 (UniProt Q8TBE0), the log2 fold change in assay [2] is inactive: 0.
On to BIN3 (UniProt Q9NQY0), for which the log2 fold change with vorinostat was inactive: -0.179; in the assay with silmitasertib it was inactive: 0.043; in assay [2] it was inactive: 0.
Consider BEGAIN, A0A1B0GVM0, for which the log2 fold change with vorinostat is inactive: 0.354; with silmitasertib, inactive: -0.011; in assay [2], inactive: 0.017; with entospletinib, inactive: 0.071.
